Assay results taken from patent publication US8193167B2, “Pharmacologically active agents containing esterified phosphonates and methods for use thereof” (priority 2004, dated 2012).
Some results were stated once for a whole list of compounds, not compound by compound. At least one compound was matched to its structure with a doubt left.

Test system: vaccinia virus (VV) and cowpox virus (CV)
Assay type: cell-based

CCCCCCCCCCCCCCCCCCCCOP(=O)(O)COC(CO)Cn1cnc2c(N)ncnc21 [Eicosyl-(S)-HPMPA]
EC50: < 500 nM

CC(C)CCCCCCCCCCCCCCOCCOP(=O)(O)CO[C@H](CO)Cn1cnc2c(N)ncnc21 [15-methyl-hexadecyloxyethyl-(S)-HPMPA]
EC50: < 500 nM
